{"source": "PubChem BioAssay AID1259254 (NCATS, 2017)", "purpose": "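Finding genes that stop cells copying their DNA twice in one cycle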 (primary screen)", "system": "human HCT116 colorectal cancer cells", "knock-down reagent": "single siRNA against human genes", "timing": "3 days", "detection": "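Imaged Hoechst DNA stain sorts each cell into a cycle phase by DNA amount; per plate, G2 fraction set to 0% for non-targeting and 100% for GMNN siRNA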", "reading the numbers": "G2 robust z-score: higher = more G2 cells, more excess DNA replication", "hit rule": "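Active siRNAs have a G2 robust z of 5 or more median absolute deviations over the median, which in these data means about 38% or higher of GMNN control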", "note": "In all, the deposit lists about 59,000 reagents; this is a random part of them. About 1,550 of all reagents (2.6%) count as active. 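G2 share is only a proxy for re-replication; each gene was hit by three separate siRNAs, and active genes were retested.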 Not all columns of the deposit are shown. Not stated in the record: the amount of reagent."}
{"target gene":"AP1S1 (adaptor related protein complex 1 subunit sigma 1)","PubChem SID":"SID160743979","G2 robust z-score":-0.603,"outcome":"inactive"}
{"target gene":"AP1S1 (adaptor related protein complex 1 subunit sigma 1)","PubChem SID":"SID160743990","G2 robust z-score":1.17,"outcome":"inactive"}
{"target gene":"AP1S1 (adaptor related protein complex 1 subunit sigma 1)","PubChem SID":"SID160744001","G2 robust z-score":-1.34,"outcome":"inactive"}
{"target gene":"SLCO4C1","PubChem SID":"SID160765165","G2 robust z-score":0.335,"outcome":"inactive"}
{"target gene":"SLCO4C1","PubChem SID":"SID160765166","G2 robust z-score":-0.592,"outcome":"inactive"}
{"target gene":"SLCO4C1","PubChem SID":"SID160765167","G2 robust z-score":-0.614,"outcome":"inactive"}
{"target gene":"ATG101 (autophagy related 101)","PubChem SID":"SID160747158","G2 robust z-score":0.0825,"outcome":"inactive"}
{"target gene":"ATG101 (autophagy related 101)","PubChem SID":"SID160747159","G2 robust z-score":1.02,"outcome":"inactive"}
{"target gene":"ATG101 (autophagy related 101)","PubChem SID":"SID160747160","G2 robust z-score":0.718,"outcome":"inactive"}
{"target gene":"TRAF2 (TNF receptor associated factor 2)","PubChem SID":"SID160718320","G2 robust z-score":0.0881,"outcome":"inactive"}
{"target gene":"TRAF2 (TNF receptor associated factor 2)","PubChem SID":"SID160718322","G2 robust z-score":-0.574,"outcome":"inactive"}
{"target gene":"TRAF2 (TNF receptor associated factor 2)","PubChem SID":"SID160718323","G2 robust z-score":-0.729,"outcome":"inactive"}
{"target gene":"WDR91 (WD repeat domain 91)","PubChem SID":"SID160738981","G2 robust z-score":2.23,"outcome":"inactive"}
{"target gene":"WDR91 (WD repeat domain 91)","PubChem SID":"SID160738982","G2 robust z-score":-0.313,"outcome":"inactive"}
{"target gene":"WDR91 (WD repeat domain 91)","PubChem SID":"SID160738983","G2 robust z-score":-0.803,"outcome":"inactive"}
{"target gene":"PSMD1 (proteasome 26S subunit, non-ATPase 1)","PubChem SID":"SID160715229","G2 robust z-score":5.53,"outcome":"active"}
{"target gene":"PSMD1 (proteasome 26S subunit, non-ATPase 1)","PubChem SID":"SID160715230","G2 robust z-score":3.58,"outcome":"inactive"}
{"target gene":"PSMD1 (proteasome 26S subunit, non-ATPase 1)","PubChem SID":"SID160715231","G2 robust z-score":11.3,"outcome":"active"}
{"target gene":"KANSL3 (KAT8 regulatory NSL complex subunit 3)","PubChem SID":"SID160744078","G2 robust z-score":-0.591,"outcome":"inactive"}
{"target gene":"KANSL3 (KAT8 regulatory NSL complex subunit 3)","PubChem SID":"SID160744079","G2 robust z-score":1.58,"outcome":"inactive"}
{"target gene":"KANSL3 (KAT8 regulatory NSL complex subunit 3)","PubChem SID":"SID160744080","G2 robust z-score":-0.3,"outcome":"inactive"}
{"target gene":"WBP1 (WW domain binding protein 1)","PubChem SID":"SID160732770","G2 robust z-score":-0.148,"outcome":"inactive"}
{"target gene":"WBP1 (WW domain binding protein 1)","PubChem SID":"SID160736566","G2 robust z-score":-1.32,"outcome":"inactive"}
{"target gene":"WBP1 (WW domain binding protein 1)","PubChem SID":"SID160736567","G2 robust z-score":0.824,"outcome":"inactive"}

Hits (from the list above):
{"target gene":"PSMD1 (proteasome 26S subunit, non-ATPase 1)","PubChem SID":"SID160715229","G2 robust z-score":5.53,"outcome":"active"}
{"target gene":"PSMD1 (proteasome 26S subunit, non-ATPase 1)","PubChem SID":"SID160715231","G2 robust z-score":11.3,"outcome":"active"}
